Laboratory results published in PubChem BioAssay AID1794845 (National Center for Advancing Translational Sciences (NCATS), 2023).
In all, about 6,900 compounds went through this assay and fewer than 10 were called active. Calls follow the shape of the dose curve; as a rule, active = well fitted curve in the direction sought with a large enough effect; inconclusive = small, poorly fitted or top-dose-only effect, or another doubt; inactive = no such curve, though single readings can be large or run the other way. The list shows a part of the results.

By UniProt entry, the sequences of proteins in these tests, tags left out. Where a name states a change or a piece, a line headed by the entry shows the natural chain unless it says otherwise.
UniProt C7C422: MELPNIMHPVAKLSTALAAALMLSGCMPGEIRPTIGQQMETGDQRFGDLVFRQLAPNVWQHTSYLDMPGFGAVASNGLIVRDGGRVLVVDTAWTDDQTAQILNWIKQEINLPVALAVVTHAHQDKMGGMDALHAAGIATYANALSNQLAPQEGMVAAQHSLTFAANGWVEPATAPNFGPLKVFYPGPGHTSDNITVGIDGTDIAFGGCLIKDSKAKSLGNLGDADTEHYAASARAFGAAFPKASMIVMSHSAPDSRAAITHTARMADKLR

target: Metallo-beta-lactamase type 2 (Klebsiella pneumoniae) (UniProt C7C422); assay: qHTS to identify inhibitors of the New Delhi Metallo-beta-lactamase (NDM): primary screen against the NCATS Gemini Collection; conditions: NDM-1 enzyme, meropenem hydrolysis, absorbance 300 nm; at 38.4 µM (top of the series) unless noted; also: % of control where 0% means no effect
Description: Assay Submitter (PI): James Inglese Ph.D., Patricia Dranchak Ph.D., Mahesh Aitha Ph.D. Assay Development and Screening Technology Laboratory (ADST) National Center for Advancing Translational Sciences (NCATS), Rockville, MD National Institute of Health (NIH), Bethesda, Maryland The metallo-beta-lactamases (MBL) are a main antibiotic resistance mechanism evolved by bacteria. There is an urgent clinical need for MBL inhibitors to mitigate this growing threat. To support a machine-based learning study, qHTS has been used to experimentally test inhibitors identified by prediction tools.
PROTOCOL TABLE (as described by Inglese et al., 2007) SEQUENCE No. (e.g., 1, 2, 3, etc.); […] (e.g., enzyme, Incubation, Reagent, etc.); VALUE; DESCRIPTION 1; NDM-1; 4 uL of 3 nM enzyme [2 nM final] in 50 mM HEPES (pH 7.0), 1 uM […], 0.01% Tween20; Use BioRaptr to dispense into Aurora black, clear bottom low base 1536-well plates 2; Compounds; 23 nL; Use Pin Tool (Wako) to transfer DMSO control and library compounds in DMSO 3; Incubate; >30 min 4; Reagent; 2 uL of 150 uM meropenem [50 uM final] 5; Incubate; 30 min. 6; Detector; Absorbance at 300 nm (bandwidth = 5 nm, 25 flashes/well) on Tecan Infinity NOTES (numbers refer to sequence above) 1; Column 1 of each plate received assay buffer without enzyme and columns 2-48 received enzyme for a final assay concentration of 2 nM. 2; Control plate contained DMSO in columns 1, 2, 3, and 4. 3; Compound interaction with enzyme. 4; Meropenem substrate was prepared in the same assay buffer as step 1 for a final assay concentration of 50 uM and added to all wells across the assay plates. 5; Substrate interaction with enzyme, plateau phase of kinetics. 6; Default reader settings were applied for absorbance read at 300 nm, bandwidth = 5 nm, 25 flashes/well. References: Inglese J, Shamu CE, Guy RK. 2007. Reporting data from high-throughput screening of small-molecule libraries. Nat Chem Biol. doi:10.1038/nchembio0807-438 Yasgar A, Shinn P, Jadhav A, Auld D, Michael S, Zheng W, Austin CP, Inglese J, Simeonov A. 2008. Compound Management for Quantitative High-Throughput Screening. J Lab Autom 13:79 - 89. doi:10.1016/j.jala.2007.12.004

Activity % (negative = inhibition), inactive:
CSCc1noc(CN2CCCC(CO)(CC=C(C)C)C2)n1 (stereo not given) 11.2%
O=C(NCCc1ccc(Cl)cc1)c1nc(-c2ccc(Cl)cc2Cl)c2ccccn12 9.91%
O=C(CNC(=O)c1cccc(-c2ccc(C(F)(F)F)cc2)c1)NCC(F)(F)F 1.51%
O=C(c1cc(Br)cn2ccnc12)N1CCCC1 2.44% [at 57.5 µM]
Cc1nn(C)c(C)c1CCCN(C)C(=O)c1ccc2c(c1)C(O)CCCCCN2C (stereo not given) -0.231%
O=C(NCC1CN(S(=O)(=O)c2cccnc2)CC12CCOCC2)N1CCCC1 (stereo not given) 14.3%
O=C(CCC1CCN(Cc2cn(-c3ccccc3)nn2)CC1)N1CCOCC1 -0.517%
COCC(=O)N[C@H]1C[C@@H](CO)N(Cc2ccsc2)C1 6.31%
NC(=O)N1CCCC(C(=O)NCCCn2nccc2C2CC2)C1 (stereo not given) 0.843%
Cc1cnc(CN(C)Cc2cn(-c3ccccc3)nn2)[nH]1 1.49%
CCC1c2nccn2CCCN1C(=O)Cn1c(=O)oc2ccccc21 (stereo not given) 7.56%
CCNC(=O)N1CCOc2ccc(CCC(=O)N3CCCCC3c3cccnc3)cc2C1 (stereo not given) 6.41%
COc1ccccc1N1CCN(C(=O)CC[C@]23CC[C@](C)(O)C[C@H]2C(C)(C)C[C@@H]3NC(=O)c2cccnc2)CC1 -2.02%
Cc1cc(C)c(C#N)c(N2CCC3(CCC(=O)N(CC(C)O)C3)CC2)n1 (stereo not given) 3.73%
CCOCc1nc(C2CCCN2S(=O)(=O)c2cn(C)cn2)no1 (stereo not given) 2.39%
O=C(c1cc(-c2ccccc2)nc2ccccc12)N1CCc2c(nc[nH]c2=O)C1 3.06%
CCC(CC)Nc1ncnc2c1CN(C1CCC1)C(=O)CN2C 5.71% [at 57.5 µM]
CN1C[C@H](O)C[C@H]1c1nnc2n1CCN(C(=O)C1CCCCC1)CC2 41.5%
CCNC(=O)Nc1ccc([C@H]2OCC(=O)N(Cc3scnc3C)[C@@H]2CO)cc1 -0.857% [at 57.5 µM]
CC1=C[C@@H](CNS(C)(=O)=O)[C@H](C(C)C)C[C@H]1CC(=O)O 7.2% [at 57.5 µM]
CCn1ccc(C(=O)N2CCCn3ccnc3C2c2cnn(C)c2)n1 (stereo not given) 2.16%
CSc1ncc(CN2CCC(n3nccc3NC(=O)Cc3ccccc3)CC2)cn1 7.25%
N#Cc1ccccc1CN1CCN(Cc2ccccc2)CC(O)C1 (stereo not given) -0.749%
CC1=NOC(C(=O)N2CCCn3nc(C(=O)NCCN(C)C)cc3C2)C1 (stereo not given) -12.8%
C[S+](=O)([O-])N1CCn2c(nnc2-c2ccccc2)C1 -13.3% [at 57.5 µM]
Cc1cc2cc(-c3c(C)noc3C)nc(N3CCN(c4ccccn4)CC3)c2o1 14.9% [at 57.5 µM]
Cc1noc(C)c1-c1cc2cc(C(C)C)oc2c(-c2ccc(CO)cc2)n1 5.18% [at 57.5 µM]
Cn1ccnc1CN1CCOc2cc([S+](=O)([O-])Nc3ccccc3)ccc2C1 0.216% [at 57.5 µM]
O=C1NCCCCCN(S(=O)(=O)c2ccc3c(c2)OCCO3)[C@H]2CCC[C@@H]12 8.86%
O=C(c1ccc(Cl)cc1)N1CC(CO)C2(CCNCC2)C1 (stereo not given) 14.2%
Cc1cccc(CC(=O)N[C@@H]2CN(c3ccncn3)C[C@H]2CO)c1 0.27%
CS(=O)(=O)N1Cc2ccccc2CC2(CCN(Cc3ccccn3)C2)C1 (stereo not given) -2.48%
CN(Cc1ccccc1C(F)(F)F)CC1CCCCC1 0.658% [at 57.5 µM]
CC(=O)N1CCCN(Cc2nnc(C(=O)N3CCC[C@@H]3c3cccc(F)c3)n2-c2cccnc2)CC1 -6.3%
CC(C)c1nccn1CCCNC(=O)c1ccc(-c2cccc(F)c2)nc1 1.92%
CCC(C)(C)C(=O)NCCc1noc(-c2ccccc2)n1 0.937%
CC1(COc2ccccc2)COc2ccc(C(=O)N3CCN(c4ccccn4)CC3)cc2N1 (stereo not given) 1.72%
O=C1CN(Cc2cc3cc4c(cc3[nH]c2=O)OCO4)CCCN1 1.39%
COCCOC1CCN(C(=O)c2[nH]nc3c2COc2ccccc2-3)CC1 85%
COc1cccc(C(=O)N2CC(=O)N(Cc3ccc(Cl)cc3)CC(O)C2)c1 (stereo not given) -3.82%
CC1Oc2ccc(NC(=O)c3cccs3)cc2CN(CCOc2ccccc2)C1=O (stereo not given) 7.73%
CN(C)c1nc(-c2ccncc2)nc2c1CCN(C(=O)c1cc(=O)[nH][nH]1)C2 17.4%
CCCNC(=O)N1CCC2(CC1)N(c1ccccc1)C(=O)CS2=O (stereo not given) 45.8%
O=C(NCC1CCCN(C(=O)N2CCCC2)C1)c1ccc(-c2ccccc2)cc1 (stereo not given) 3.02%
Cc1nc2ncccn2c1C(=O)N[C@H]1CCOC[C@H]1C1CCOCC1 1.69%
Cc1ccc(C(=O)N2CCC(N3C(=O)c4c(c(C)nn4-c4ccccc4)C3C)CC2)cc1 (stereo not given) 5.5%
O=C(Nc1ccc(F)cc1)c1ccc2ccnn2c1 20.8% [at 57.5 µM]
C1CC2(CCN1)CC(OCC1CC1)CCO2 (stereo not given) -6.21%
Cc1ccc(C2=NC3(CCN(C(=O)c4ccc(C)c(C)c4)CC3)ON2)cc1 25.1%
Cc1ccc(-c2cc(-c3ccncc3)c3cncn3c2)cn1 61.6% [at 77.1 µM]
O=C(C1CC=CC1)N1C[C@@H](COc2cccnc2)[C@H](c2ccccn2)C1 0.815%
CNC(=O)N1CCC(C2CCN(C(=O)NCc3cccc(OC)c3)C2)CC1 (stereo not given) -1.39%
O=C(NCC1CCCO1)C1CCN(C2CCN(C(=O)CCC3CCCCC3)CC2)CC1 (stereo not given) 0.446%
CC(C)[S+](=O)([O-])N1CC2ON=C(C(=O)O)C2C1 (stereo not given) -1.12% [at 57.5 µM]
CCN(CC)S(=O)(=O)c1ccc(-c2nc(C)ccc2OC)cc1 4.23%

Of the compounds above, these contain a thiophene ring, fused or not:
Activity % (negative = inhibition), inactive:
COCC(=O)N[C@H]1C[C@@H](CO)N(Cc2ccsc2)C1 6.31%
CC1Oc2ccc(NC(=O)c3cccs3)cc2CN(CCOc2ccccc2)C1=O (stereo not given) 7.73%

Two entries picked at random from those above:
Activity % (negative = inhibition), inactive:
COc1ccccc1N1CCN(C(=O)CC[C@]23CC[C@](C)(O)C[C@H]2C(C)(C)C[C@@H]3NC(=O)c2cccnc2)CC1 -2.02%
O=C(NCC1CN(S(=O)(=O)c2cccnc2)CC12CCOCC2)N1CCCC1 (stereo not given) 14.3%
